Data source: PubChem BioAssay AID1224830 (NIAID, 2016)
Shown is a random part of about 18,000 reagents. About 2,900 of them (16%) count as active. 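Calls are made per well; low scores hint the gene aids the LPS response, high scores that it dampens it.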 Repeated entries: four replicate wells of each siRNA pool. No sequences are given here.

- Screen: 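Host factors that control LPS-induced TNF expression in human macrophages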 (primary screen)
- Cell system: human THP-1 monocytic leukaemia cells, TNF dual-luciferase reporter clone, PMA-differentiated to macrophage-like cells
- Reagents: siRNA pool against human genes, 50 nM
- Timing: LPS for 4 h, given about 3 days after siRNA transfection
- Conditions: bacterial LPS (TLR4 ligand), 10 ng/ml
- Detection: 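Ratio of firefly to renilla light, scaled to the plate median and expressed as a robust z-score per replicate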
- Scale: TNF reporter robust z-score: higher = stronger TNF reporter response to LPS
- Call rule: 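a well is active when its z-score exceeds 2.8 or falls below -1.5; control wells carry no call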

RAG1 | TNF reporter robust z-score: 0.11; Call: inactive
RAG1 | TNF reporter robust z-score: 0.05; Call: inactive
RAG1 | TNF reporter robust z-score: -1.52; Call: active
RAG1 | TNF reporter robust z-score: -0.33; Call: inactive
MYCL | TNF reporter robust z-score: 0.11; Call: inactive
MYCL | TNF reporter robust z-score: -0.22; Call: inactive
MYCL | TNF reporter robust z-score: -1.15; Call: inactive
B4GALNT4 | TNF reporter robust z-score: -0.87; Call: inactive
B4GALNT4 | TNF reporter robust z-score: -0.18; Call: inactive
B4GALNT4 | TNF reporter robust z-score: -0.64; Call: inactive
YBX2 | TNF reporter robust z-score: -0.61; Call: inactive
YBX2 | TNF reporter robust z-score: -0.56; Call: inactive
YBX2 | TNF reporter robust z-score: -0.36; Call: inactive
YBX2 | TNF reporter robust z-score: -0.53; Call: inactive
CASP10 | TNF reporter robust z-score: -0.94; Call: inactive
CASP10 | TNF reporter robust z-score: 0.93; Call: inactive
CASP10 | TNF reporter robust z-score: 0.82; Call: inactive
CASP10 | TNF reporter robust z-score: -0.41; Call: inactive
KIF25 | TNF reporter robust z-score: -0.95; Call: inactive
KIF25 | TNF reporter robust z-score: -0.72; Call: inactive
KIF25 | TNF reporter robust z-score: -0.49; Call: inactive
KIF25 | TNF reporter robust z-score: -0.2; Call: inactive
KIF24 | TNF reporter robust z-score: -1.55; Call: active
KIF24 | TNF reporter robust z-score: -0.65; Call: inactive
KIF24 | TNF reporter robust z-score: -1.25; Call: inactive
KIF24 | TNF reporter robust z-score: -0.75; Call: inactive
HUNK | TNF reporter robust z-score: -1.14; Call: inactive
HUNK | TNF reporter robust z-score: 0.29; Call: inactive
HUNK | TNF reporter robust z-score: -1.35; Call: inactive
HUNK | TNF reporter robust z-score: -0.87; Call: inactive
PRAME | TNF reporter robust z-score: 1.14; Call: inactive
PRAME | TNF reporter robust z-score: 1.42; Call: inactive
PRAME | TNF reporter robust z-score: 0.59; Call: inactive
PRAME | TNF reporter robust z-score: 3.3; Call: active
DNAI2 | TNF reporter robust z-score: -0.99; Call: inactive
DNAI2 | TNF reporter robust z-score: -0.85; Call: inactive
DNAI2 | TNF reporter robust z-score: -0.73; Call: inactive
DNAI2 | TNF reporter robust z-score: -0.79; Call: inactive

Active calls (from the list above):
RAG1 | TNF reporter robust z-score: -1.52; Call: active
KIF24 | TNF reporter robust z-score: -1.55; Call: active
PRAME | TNF reporter robust z-score: 3.3; Call: active

Further records follow.
GATD3 | TNF reporter robust z-score: 0.59; Call: inactive
GATD3 | TNF reporter robust z-score: 0.43; Call: inactive
GATD3 | TNF reporter robust z-score: 0.22; Call: inactive
GATD3 | TNF reporter robust z-score: 0.56; Call: inactive
EMILIN3 | TNF reporter robust z-score: -0.25; Call: inactive
EMILIN3 | TNF reporter robust z-score: 0.35; Call: inactive
EMILIN3 | TNF reporter robust z-score: 0.84; Call: inactive
EMILIN3 | TNF reporter robust z-score: -0.02; Call: inactive
ICOS | TNF reporter robust z-score: 0.79; Call: inactive
ICOS | TNF reporter robust z-score: 0.31; Call: inactive
ICOS | TNF reporter robust z-score: 0.29; Call: inactive
ICOS | TNF reporter robust z-score: 0.14; Call: inactive
TUBB3 | TNF reporter robust z-score: -0.68; Call: inactive
TUBB3 | TNF reporter robust z-score: 0.27; Call: inactive
TUBB3 | TNF reporter robust z-score: -0.23; Call: inactive
TUBB3 | TNF reporter robust z-score: 0.1; Call: inactive
MRPL28 | TNF reporter robust z-score: 0.19; Call: inactive
MRPL28 | TNF reporter robust z-score: -0.32; Call: inactive
MRPL28 | TNF reporter robust z-score: -0.46; Call: inactive
MRPL28 | TNF reporter robust z-score: 0.17; Call: inactive
SIM2 | TNF reporter robust z-score: -0.78; Call: inactive
SIM2 | TNF reporter robust z-score: -0.82; Call: inactive
SIM2 | TNF reporter robust z-score: -0.55; Call: inactive
SIM2 | TNF reporter robust z-score: -0.27; Call: inactive
